Measured values reported in PMC7819943, “Rice protein-binding microarrays: a tool to detect cis-acting elements near promoter regions in rice”.
Some of the results follow.

Chains of the proteins cited; added tags and fusions are not shown.
UniProt Q0JBA9, entry or part of it: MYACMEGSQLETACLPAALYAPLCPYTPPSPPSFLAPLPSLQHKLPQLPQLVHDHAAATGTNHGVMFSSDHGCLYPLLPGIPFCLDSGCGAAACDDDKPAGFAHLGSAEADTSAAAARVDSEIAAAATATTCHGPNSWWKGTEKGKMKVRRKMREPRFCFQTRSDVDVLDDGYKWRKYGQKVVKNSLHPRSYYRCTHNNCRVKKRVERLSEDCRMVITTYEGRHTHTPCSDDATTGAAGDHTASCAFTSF

target: OsWRKY34 (Oryza sativa, UniProt Q0JBA9 1-250); experiment: protein-binding microarray (RPBM); PBS, 2% BSA, 51.3 ng/ul salmon testes DNA, 50 uM zinc acetate, 200 nM TF, 25 C, 1 h; high values mean tight binding; conditions: protein: recombinant; tags: N-terminal polyhistidine and DsRed monomer fusion (pET32a); label: CyDye5-dUTP incorporated in the synthesized complementary strand; 3' TTTTT single-stranded linker to array surface; dsDNA, one strand shown
How it was run: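 In PBS with 2% BSA, salmon testes DNA and 50 µM zinc acetate, 200 nM protein was incubated on a custom Agilent array at 25 °C for 1 h and then washed off. The array had been made double-stranded by primer extension with Cy5-dUTP and blocked with 2% BSA. The proteins were transcription factors fused N-terminally to polyhistidine and DsRed, expressed in E. coli BL21-CodonPlus and purified on Ni–NTA. The binding signal is per-feature fluorescence intensity (arbitrary units) from an Axon 4000B scanner.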

| Sequence | binding signal |
| --- | --- |
| GCTTCCATCCTTCCAACGAATCCACGCCGTCCATTCGCCACGGAGTCACCTAGTGCAG | 12800 fluorescence intensity (a.u.) |
| GTTCATTTCCTTGGGGTTTAATTCTTGGTTGCCAGCGAGCCGGAGTCACCTAGTGCAG | 9620 fluorescence intensity (a.u.) |
| CCACTATCTACCTGCTTCATCAGCTTCACAAGTTCTGTTCCGGAGTCACCTAGTGCAG | 11500 fluorescence intensity (a.u.) |
| GTGGTAGTGAATTTGCCATCCAACCTACTTCTATTAAAAGCGGAGTCACCTAGTGCAG | 8430 fluorescence intensity (a.u.) |
| GCCCCGTCCATTTCCCGTCCACTTGACACTGATGCTTCGCCGGAGTCACCTAGTGCAG | 15000 fluorescence intensity (a.u.) |
| CGCGTCCTTTGGCCTCGTCTCACTCCATTCTCATTTCCCACGGAGTCACCTAGTGCAG | 10600 fluorescence intensity (a.u.) |
| CTGCTAATCACTCACGTATAGTTCGTACTTCATTTCTTCTCGGAGTCACCTAGTGCAG | 8130 fluorescence intensity (a.u.) |
| CTCCCCAACCCAACCCAAGCCTATCTCACAAACCCGCGCGCGGAGTCACCTAGTGCAG | 8160 fluorescence intensity (a.u.) |
| ATGCCCTAGTATATGTTGTTGCCTTTCTGTTTCAGTAGTCCGGAGTCACCTAGTGCAG | 8470 fluorescence intensity (a.u.) |
| CTGAGTTTTCGTGTCCAACTTTTTGACTGTCCGTCTTATACGGAGTCACCTAGTGCAG | 8880 fluorescence intensity (a.u.) |
| TCGCTTTTTACTTTTTATTTTTTTACACATCCGACTCAAACGGAGTCACCTAGTGCAG | 8260 fluorescence intensity (a.u.) |
| TACAACTTTATTTTTGGCAACTTTTTCATATGAGTTTATTCGGAGTCACCTAGTGCAG | 11100 fluorescence intensity (a.u.) |
| GTCCACTAATCTTCCAACCACGAGGAGCTACCAACCCACTCGGAGTCACCTAGTGCAG | 10700 fluorescence intensity (a.u.) |
| ATCCAATTTCTTACCCCGTTCGACTCCACTCGACTCGACCCGGAGTCACCTAGTGCAG | 10200 fluorescence intensity (a.u.) |
| TCTTGATCACAACATACACTTACCTCATTGGCACCTAGACCGGAGTCACCTAGTGCAG | 8160 fluorescence intensity (a.u.) |
| CTGGCACGCCCGCATCTCGTTAACCTTTGGACCTGCACTGCGGAGTCACCTAGTGCAG | 8570 fluorescence intensity (a.u.) |
| GGTCGACGTGGCGACGCCTTTTTGATGGTTTTTTTTTTCCCGGAGTCACCTAGTGCAG | 9000 fluorescence intensity (a.u.) |
| CGTAGCCTCCGCTCCGCCGCCGCGCTTCGCTGCCTTCGCTCGGAGTCACCTAGTGCAG | 10300 fluorescence intensity (a.u.) |
| ATGCACGCTTTTTTTTTTCCGCCGCGTGCCCCTTCCCTTACGGAGTCACCTAGTGCAG | 9640 fluorescence intensity (a.u.) |
| GGGATCTGAGGCGCGTTTCTTAATTTGCCTTCTCTTTGAGCGGAGTCACCTAGTGCAG | 9220 fluorescence intensity (a.u.) |
| AACTTGCTCTTACACACGCATTTATCGCACCCTTGACCGACGGAGTCACCTAGTGCAG | 10500 fluorescence intensity (a.u.) |
| TTCTCCCCTCCTCCAAGTTGCATCTCACTTTTCCTCCTTCCGGAGTCACCTAGTGCAG | 8050 fluorescence intensity (a.u.) |
| CATCGCCTCGCCTCTTCGTTTTCGGTTGCACGCTCGCTTGCGGAGTCACCTAGTGCAG | 11500 fluorescence intensity (a.u.) |

Copied from the list.
CATCGCCTCGCCTCTTCGTTTTCGGTTGCACGCTCGCTTGCGGAGTCACCTAGTGCAG | binding signal: 11500 fluorescence intensity (a.u.)
ATGCCCTAGTATATGTTGTTGCCTTTCTGTTTCAGTAGTCCGGAGTCACCTAGTGCAG | binding signal: 8470 fluorescence intensity (a.u.)
